Record: PubChem BioAssay AID1259308 (NCATS, 2017)
Assay: 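Knock-downs that increase output of a recombinant reporter protein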 (primary screen). System: human HEK293 embryonic kidney cells stably expressing firefly luciferase (HEK-CMV-Luc2-Hygro). Knock-down reagent: single siRNA against human genes, 0.8 pmol siRNA per well. Time to read-out: 72 h. Measured: 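Luciferase light (ONE-Glo) measured on one replicate plate set and viability (CellTiter-Glo) on the other, scaled to a negative control siRNA, with robust z-scores and luciferase per cell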. Direction: total luciferase, z-score and total luciferase, % of control: higher = more reporter protein produced; luciferase per cell, z-score: higher = more reporter output per viable cell. Hit rule: 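Active when the median/MAD z-score for overall luciferase is greater than 3; a gene was taken forward for validation with new siRNAs if at least two of its three siRNAs passed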. Calls: active = raised luciferase; inactive = no rise.
In all, the deposit lists about 59,000 reagents; this is a part drawn at random. About 1,510 of all reagents (2.6%) count as active. 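Calls use total luciferase alone and ignore viability, so some active siRNAs may act by altering cell number.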 Reagents against one gene are numbered here. Not all columns of the deposit are shown. Reagent sequences are not shown.

gene,reagent no.,"total luciferase, z-score","total luciferase, % of control","luciferase per cell, z-score",activity call
ICAM4,1,-0.282,76.3,-0.102,inactive
ICAM4,2,-0.116,79.6,0.146,inactive
ICAM4,3,-0.31,75.7,-0.62,inactive
TCEAL3 (transcription elongation factor A like 3),1,0.0894,83.7,0.143,inactive
TCEAL3 (transcription elongation factor A like 3),2,-1.08,60.4,-0.769,inactive
TCEAL3 (transcription elongation factor A like 3),3,-0.0991,79.9,-0.177,inactive
RPSA (ribosomal protein SA),1,1.16,105,0.368,inactive
RPSA (ribosomal protein SA),2,-0.304,75.8,-1.23,inactive
RPSA (ribosomal protein SA),3,0.309,88,0.484,inactive

Continued (3 carried over from the part before).
gene,reagent no.,"total luciferase, z-score","total luciferase, % of control","luciferase per cell, z-score",activity call
RPSA (ribosomal protein SA),1,1.16,105,0.368,inactive
RPSA (ribosomal protein SA),2,-0.304,75.8,-1.23,inactive
RPSA (ribosomal protein SA),3,0.309,88,0.484,inactive
CREBZF (CREB/ATF bZIP transcription factor),1,-1.84,45.2,-1.53,inactive
CREBZF (CREB/ATF bZIP transcription factor),2,-0.151,78.9,-0.717,inactive
CREBZF (CREB/ATF bZIP transcription factor),3,2.11,124,2.22,inactive
JAML (junction adhesion molecule like),1,0.949,101,1.44,inactive
JAML (junction adhesion molecule like),2,0.418,90.2,0.421,inactive
JAML (junction adhesion molecule like),3,0.11,84.1,0.183,inactive
PCM1 (pericentriolar material 1),1,-1.12,59.6,-1.1,inactive
PCM1 (pericentriolar material 1),2,-1.34,55.1,-1.08,inactive
PCM1 (pericentriolar material 1),3,1.34,108,0.805,inactive
ECSCR,1,-0.193,78,-0.343,inactive
ECSCR,2,0.569,93.2,1.36,inactive
ECSCR,3,2.94,140,1.56,inactive
HYLS1 (HYLS1 centriolar and ciliogenesis associated),1,0.802,97.8,1.53,inactive
HYLS1 (HYLS1 centriolar and ciliogenesis associated),2,-0.159,78.7,-0.0529,inactive
HYLS1 (HYLS1 centriolar and ciliogenesis associated),3,0.717,96.2,0.988,inactive
